Reference: paper PMC10119177 (2023)

Target: IgI3 domain of R28 (R28-IgI3), wildtype (Streptococcus pyogenes)
Experiment: flow cytometry of protein-coated Dynabeads; C-terminal biotin tagged R28-IgI3 on streptavidin Dynabeads (3 x 10^5); incubated with rCEACAM at 10 μg/ml; washed in PBS + 0.5% BSA; detected with FITC anti-HIS IgG; both purified

B1: mouse rCEACAM1-HIS (receptor, UniProt P31809 35-428)
chain: EVTIEAVPPQVAEDNNVLLLVHNLPLALGAFAWYKGNTTAIDKEIARFVPNSNMNFTGQAYSGREIIYSNGSLLFQMITMKDMGVYTLDMTDENYRRTQATVRFHVHPILLKPNITSNNSNPVEGDDSVSLTCDSYTDPDNINYLWSRNGESLSEGDRLKLSEGNRTLTLLNVTRNDTGPYVCETRNPVSVNRSDPFSLNIIYGPDTPIISPSDIYLHPGSNLNLSCHAASNPPAQYFWLINEKPHASSQELFIPNITTNNSGTYTCFVNNSVTGLSRTTVKNITVLEPVTQPFLQVTNTTVKELDSVTLTCLSNDIGANIQWLFNSQSLQLTERMTLSQNNSILRIDPIKREDAGEYQCEISNPVSVRRSNSIKLDIIFDPTQGGLSDGAIAG
binding: no binding

These are yes or no findings as the source states them, for the method shown. Where a sequence is shown, tags or fusion partners need not be part of it.
